PubChem BioAssay AID1224828, NIAID – 2016

Aim: 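Find genes required for NF-kappaB p65 moving into the nucleus after LPS in mouse macrophages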 (primary screen)
Cells: mouse RAW264.7 G9 macrophage reporter cells (GFP-p65, Tnf promoter-mCherry)
Knock-down reagent: siRNA pool against mouse genes, 100 nM
Timing: 2 days siRNA transfection, then 40 min LPS before fixation
Treatment: LPS (Salmonella minnesota R595) at 10 ng/ml
Measured: 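Microscopy ratio of nuclear to perinuclear-ring GFP-p65 signal, scaled to the plate median; gene score is the average of two replicate robust z-scores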
Direction: p65 translocation robust z-score: higher = more nuclear NF-kappaB p65 after LPS than the plate median; nuclear/cytoplasmic p65 ratio: higher = more nuclear NF-kappaB p65
Rule for the call: 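Active if robust z is above 3.3 (negative regulators) or below -1.56, the Tlr4 control median (positive regulators); activity score 50 or more; control wells not called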
Meaning of the calls: active = hit (p65 shift raised or lowered); inactive = no clear change
Here is one part, drawn at random, of about 17,000 deposited reagents. 762 of all reagents (4.5%) were called active. 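Active calls include both raised and lowered p65 entry, mostly lowered; wells with fewer than 50 cells lack a z-score.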 The raw values are shown without normalisation. Entries without a mark were called inactive.

Ogt
- p65 translocation robust z-score: 0.52
- nuclear/cytoplasmic p65 ratio, rep 1: 1.39
- nuclear/cytoplasmic p65 ratio, rep 2: 1.46
- low cell count flag: enough cells to score

Or8k27
- p65 translocation robust z-score: 0.49
- nuclear/cytoplasmic p65 ratio, rep 1: 1.88
- nuclear/cytoplasmic p65 ratio, rep 2: 1.52
- low cell count flag: enough cells to score

Map3k12
- p65 translocation robust z-score: -0.69
- nuclear/cytoplasmic p65 ratio, rep 1: 1.52
- nuclear/cytoplasmic p65 ratio, rep 2: 1.34
- low cell count flag: enough cells to score

Acp5
- p65 translocation robust z-score: 0.79
- nuclear/cytoplasmic p65 ratio, rep 1: 1.79
- nuclear/cytoplasmic p65 ratio, rep 2: 1.69
- low cell count flag: enough cells to score

Mnd1
- p65 translocation robust z-score: -1.59 (active)
- nuclear/cytoplasmic p65 ratio, rep 1: 1.18
- nuclear/cytoplasmic p65 ratio, rep 2: 1.26
- low cell count flag: enough cells to score

Cdon
- p65 translocation robust z-score: -0.06
- nuclear/cytoplasmic p65 ratio, rep 1: 1.54
- nuclear/cytoplasmic p65 ratio, rep 2: 1.29
- low cell count flag: enough cells to score

Twist1
- p65 translocation robust z-score: -0.81
- nuclear/cytoplasmic p65 ratio, rep 1: 1.39
- nuclear/cytoplasmic p65 ratio, rep 2: 1.39
- low cell count flag: enough cells to score

Cyb5rl
- p65 translocation robust z-score: -0.52
- nuclear/cytoplasmic p65 ratio, rep 1: 1.21
- nuclear/cytoplasmic p65 ratio, rep 2: 1.2
- low cell count flag: enough cells to score

Plekhg4
- p65 translocation robust z-score: -1.35
- nuclear/cytoplasmic p65 ratio, rep 1: 1.11
- nuclear/cytoplasmic p65 ratio, rep 2: 1.14
- low cell count flag: enough cells to score

Spint4
- p65 translocation robust z-score: 0.64
- nuclear/cytoplasmic p65 ratio, rep 1: 1.53
- nuclear/cytoplasmic p65 ratio, rep 2: 1.62
- low cell count flag: enough cells to score

Cep104
- p65 translocation robust z-score: -1.4
- nuclear/cytoplasmic p65 ratio, rep 1: 1.24
- nuclear/cytoplasmic p65 ratio, rep 2: 1.36
- low cell count flag: enough cells to score

Numbl
- p65 translocation robust z-score: -0.31
- nuclear/cytoplasmic p65 ratio, rep 1: 1.81
- nuclear/cytoplasmic p65 ratio, rep 2: 1.36
- low cell count flag: enough cells to score

Or5m10
- p65 translocation robust z-score: 0.22
- nuclear/cytoplasmic p65 ratio, rep 1: 1.76
- nuclear/cytoplasmic p65 ratio, rep 2: 1.55
- low cell count flag: enough cells to score

Rab10os
- p65 translocation robust z-score: 0.1
- nuclear/cytoplasmic p65 ratio, rep 1: 1.39
- nuclear/cytoplasmic p65 ratio, rep 2: 1.44
- low cell count flag: enough cells to score
